Laboratory results reported in PubChem BioAssay AID226 (DTP/NCI, 2004).
The list is a part of this screen's results and no random one: it covers a few groups of compounds. Other doses and runs of a compound may be missing. T/C: endpoint of the treated group in % of that of the vehicle group. Where survival is the endpoint, the PubChem record calls one and a half times the control and up active, and a quarter to a half above the control has no call in these data; cut-offs in other NCI protocols can differ. Some entries show no survivor count and are marked so; the dose need not have been tolerated. Schedule codes are those of the source, taken here to give the interval after Q, in days (D) or hours (H), and the number of doses after X.

System: B6C3F1 mice, intracerebral ependymoblastoma, median survival T/C
Experiment: NCI In Vivo Anticancer Drug Screen. Data for tumor model Ependymoblastoma (intracerebral) in B6C3F1 mice
Conditions: T/C endpoint: median survival time, schedule: Q01DX005 (ip), vehicle: saline, higher T/C = longer survival
Protocol: The antitumor activity of compounds was measured in mice bearing transplantable tumors. Survival or tumor size were measured and the results are expressed as the measurement made in the treated group (T) divided by the measurement made in the vehicle treated control group (C). The tumor model used in this assay is Ependymoblastoma (intracerebral) in B6C3F1 mice

In the case of `CN(CCCl)CCCl`, the T/C (dose: 0.06 mg/kg/injection) was 103 % of control [survivor count not shown], the T/C (dose: 0.13 mg/kg/injection) was 109 % of control [survivor count not shown] and the T/C (dose: 0.25 mg/kg/injection) was 106 % of control [survivor count not shown]. The T/C (dose: 0.5 mg/kg/injection) was 124 % of control [survivor count not shown] and the T/C (dose: 1.0 mg/kg/injection) was 114 % of control [survivor count not shown].
